These are yes or no findings as the source states them, for the method shown. Some binding calls cover weakened binding; strength is not graded here.
What was measured:
[1] = molecular target: human C-KIT on stably transfected CHO-K1 cells (human) (UniProt P10721); assay: flow cytometry, 0.02-100 µg/ml
[2] = molecular target: human C-KIT-Fc protein (human) (UniProt P10721); assay: direct titration ELISA
[3] = molecular target: human C-KIT-Fc protein (human) (UniProt P10721); assay: direct ELISA, 1 µg/ml
[4] = molecular target: human C-KIT on stably transfected CHO-K1 cells (human) (UniProt P10721); assay: flow cytometry
[5] = molecular target: human C-KIT-Fc protein (human) (UniProt P10721); assay: HTRF epitope competition, IgG1-3M

The chains behind the UniProt entries cited, without tags or fusion partners. Where a name states a change or a piece, a line headed by the entry shows the natural chain unless it says otherwise.
UniProt P10721: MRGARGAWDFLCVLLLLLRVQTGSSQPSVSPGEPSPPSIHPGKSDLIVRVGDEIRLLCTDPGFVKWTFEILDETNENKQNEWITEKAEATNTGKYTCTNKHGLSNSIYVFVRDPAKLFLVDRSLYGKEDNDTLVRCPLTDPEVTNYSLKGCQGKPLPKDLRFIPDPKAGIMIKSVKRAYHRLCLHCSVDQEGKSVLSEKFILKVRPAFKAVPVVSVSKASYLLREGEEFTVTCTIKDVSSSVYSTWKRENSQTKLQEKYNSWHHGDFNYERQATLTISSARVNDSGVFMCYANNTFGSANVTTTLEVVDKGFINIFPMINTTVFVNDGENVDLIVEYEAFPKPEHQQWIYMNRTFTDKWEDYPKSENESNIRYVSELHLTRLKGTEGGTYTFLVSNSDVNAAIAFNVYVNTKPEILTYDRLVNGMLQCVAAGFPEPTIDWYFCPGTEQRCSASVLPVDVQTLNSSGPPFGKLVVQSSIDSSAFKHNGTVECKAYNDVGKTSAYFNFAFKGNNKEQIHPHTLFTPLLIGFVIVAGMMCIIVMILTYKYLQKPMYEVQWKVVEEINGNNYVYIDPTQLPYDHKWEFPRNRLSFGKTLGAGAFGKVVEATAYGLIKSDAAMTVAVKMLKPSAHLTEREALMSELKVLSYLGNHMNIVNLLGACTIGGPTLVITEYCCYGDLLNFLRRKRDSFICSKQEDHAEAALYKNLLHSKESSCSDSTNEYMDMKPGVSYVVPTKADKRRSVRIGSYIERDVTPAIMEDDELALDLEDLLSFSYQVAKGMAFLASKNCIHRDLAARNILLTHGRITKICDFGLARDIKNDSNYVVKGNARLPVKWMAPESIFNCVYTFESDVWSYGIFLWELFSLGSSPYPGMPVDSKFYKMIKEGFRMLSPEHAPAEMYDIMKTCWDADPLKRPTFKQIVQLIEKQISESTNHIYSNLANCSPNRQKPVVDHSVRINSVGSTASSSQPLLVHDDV

Row | Binder | binding [1] | binding [2] | binding [3] | binding [4] | binding [5]
1 | E-C7 (antibody, human IgG1, V domains shown) VH: QVQLVQSGAEVKKPGASVKVSCKASGYTFTDYYMNWVRQAPGQGLEWMGRIYPGSGNTYYAQKFQGRVTMTRDTSTSTVYMELSSLRSEDTAVYYCARGVYYYDYWGQGTLVTVSS VL: DIQMTQSPSSLSASVGDRVTITCRASQGIRTNLAWFQQKPGKAPKSLIYSASSLQSGVPSRFSGSGSGTDFTLTISSLQPEDFATYYCQQYNSYPRTFGGGTKVEIK | – | binds | binds | – | –
2 | MH1 IgG1-3M (antibody, V domains shown) VH: QVQLVQSGAEVKKPGASVKVSCKASGYTFTDYYMNWVRQAPGQGLEWMGRIYPGSGNTYYAQKFQGRVTMTRDTSTSTVYMELSSLRSEDTAVYYCARGVYYYDYWGQGTLVTVSS VL: DIQMTQSPSSLSASVGDRVTITCRASQGIRTNLAWFQQKPGKAPKSLIYAASSLQSGVPSRFSGSGSGTDFTLTISSLQPEDFATYYCQQYNSYPRTFGGGTKVEIK | – | – | – | – | binds

More lines, now with the values ahead:

Row | binding [1] | binding [2] | binding [3] | binding [4] | binding [5] | Binder
3 | binds | binds | – | – | – | m37M chimeric anti-C-KIT IgG1 (antibody, V domains shown) VH: QVQLKQSGAELVRPGASVKLSCKASGYTFTDYYINWVKQRPGQGLEWIARIYPGSGNTYYNEKFKGKATLTAEKSSSTAYMQLSSLTSEDSAVYFCARGVYYFDYWGQGTTLTVSS VL: DIVMTQSQKFMSTSVGDRVSVTCKASQNVRTNVAWYQQKPGQSPKALIYSASYRYSGVPDRFTGSGSGTDFTLTISNVQSEDLADYFCQQYNSYPRTFGGGTKLEIKR
4 | – | binds | binds | binds | – | MH5 IgG1 (antibody, V domains shown) VH: QVQLVQSGAEVKKPGASVKVSCKASGYTFTDYYMNWVRQAPGQGLEWMGRIYPGSGNTYYAQKFQGRVTMTRDTSTSTVYMELSSLRSEDTAVYYCARGVYYYDYWGQGTLVTVSS VL: DIQMTQSPSSLSASVGDRVTITCRASQGIRTNLAWFQQKPGKAPKSLIYSASSLQSGVPSRFSGSGSGTDFTLTISSLQPEDFATYYCQQYANYPRTFGGGTKVEIK
5 | – | binds | – | binds | – | MH5.34 (antibody, human IgG1, V domains shown) VH: QVQLVQSGAEVKKPGASVKVSCKASGYTFTNYYMNWVRQAPGQGLEWMGRIYPASGNTYYAQKFQGRVTMTRDTSTSTVYMELSSLRSEDTAVYYCARGVWYFDSWGQGTLVTVSS VL: DIQMTQSPSSLSASVGDRVTITCRASQGIRTNLAWFQQKPGKAPKSLIYAASSLQSGVPSRFSGSGSGTDFTLTISSLQPEDFATYYCQQYANYPRTFGGGTKVEIK
6 | – | – | – | – | binds | MH5 IgG1-3M (antibody, V domains shown) VH: QVQLVQSGAEVKKPGASVKVSCKASGYTFTDYYMNWVRQAPGQGLEWMGRIYPGSGNTYYAQKFQGRVTMTRDTSTSTVYMELSSLRSEDTAVYYCARGVYYYDYWGQGTLVTVSS VL: DIQMTQSPSSLSASVGDRVTITCRASQGIRTNLAWFQQKPGKAPKSLIYSASSLQSGVPSRFSGSGSGTDFTLTISSLQPEDFATYYCQQYANYPRTFGGGTKVEIK

From patent publication US20230212285A1
